In publication PMC11670205 (Frontiers in Immunology, 2024):
Results are given in words; binding and its absence hold for the method and conditions named. Some results given as binding are weak or reduced against the parent protein; the word gives no strength.

Sequences of proteins named here, by UniProt entry; tags and fusion partners are left off. A change or cut given only in a name is not applied to a line headed by its entry. Residues count along the entry.
UniProt Q9HC73: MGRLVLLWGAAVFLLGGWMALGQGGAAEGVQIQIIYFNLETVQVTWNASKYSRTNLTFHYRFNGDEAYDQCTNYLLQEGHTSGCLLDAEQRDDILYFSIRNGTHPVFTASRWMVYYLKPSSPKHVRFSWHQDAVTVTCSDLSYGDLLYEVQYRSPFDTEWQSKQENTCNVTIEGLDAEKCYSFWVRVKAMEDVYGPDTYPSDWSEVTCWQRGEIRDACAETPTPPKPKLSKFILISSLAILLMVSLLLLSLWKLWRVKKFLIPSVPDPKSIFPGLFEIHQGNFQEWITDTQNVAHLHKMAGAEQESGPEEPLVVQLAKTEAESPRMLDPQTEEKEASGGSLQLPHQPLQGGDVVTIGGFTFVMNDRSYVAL
UniProt P16871: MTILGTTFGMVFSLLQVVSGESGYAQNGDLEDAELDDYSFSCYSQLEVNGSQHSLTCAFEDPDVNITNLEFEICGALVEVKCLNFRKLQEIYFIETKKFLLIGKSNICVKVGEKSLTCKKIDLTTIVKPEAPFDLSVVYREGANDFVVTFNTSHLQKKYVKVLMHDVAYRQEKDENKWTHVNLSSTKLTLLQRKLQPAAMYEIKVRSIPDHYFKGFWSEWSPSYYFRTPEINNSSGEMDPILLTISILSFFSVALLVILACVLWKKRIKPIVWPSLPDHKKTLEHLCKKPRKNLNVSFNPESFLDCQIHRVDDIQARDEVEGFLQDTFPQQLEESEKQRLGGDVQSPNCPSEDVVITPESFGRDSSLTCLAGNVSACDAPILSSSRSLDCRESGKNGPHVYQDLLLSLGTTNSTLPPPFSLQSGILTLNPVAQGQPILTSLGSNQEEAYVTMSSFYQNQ
UniProt Q969D9, residues 29-159: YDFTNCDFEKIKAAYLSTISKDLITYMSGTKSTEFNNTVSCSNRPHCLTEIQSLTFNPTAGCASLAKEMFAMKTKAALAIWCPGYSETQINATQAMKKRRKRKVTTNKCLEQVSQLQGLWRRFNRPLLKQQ

Biological target: human TSLP receptor complex composed of IL-7Rα and TSLPR expressed on cell surface of transfected HEK293T (human) (UniProt Q9HC73+P16871)
Assay: flow cytometry on cells; 5 ng/mL biotinylated human TSLP on HEK293T cells co-transfected with human IL-7Rα and TSLPR, 2 hours; PE-streptavidin; only the binder purified

binding: binds
Substance: biotinylated human TSLP (from UniProt Q969D9 29-159) (ligand)
